In PMC9763423 one finds binding data, which are given here for two molecules.

By UniProt entry, the sequences of proteins in these tests, tags left out.
UniProt Q07820: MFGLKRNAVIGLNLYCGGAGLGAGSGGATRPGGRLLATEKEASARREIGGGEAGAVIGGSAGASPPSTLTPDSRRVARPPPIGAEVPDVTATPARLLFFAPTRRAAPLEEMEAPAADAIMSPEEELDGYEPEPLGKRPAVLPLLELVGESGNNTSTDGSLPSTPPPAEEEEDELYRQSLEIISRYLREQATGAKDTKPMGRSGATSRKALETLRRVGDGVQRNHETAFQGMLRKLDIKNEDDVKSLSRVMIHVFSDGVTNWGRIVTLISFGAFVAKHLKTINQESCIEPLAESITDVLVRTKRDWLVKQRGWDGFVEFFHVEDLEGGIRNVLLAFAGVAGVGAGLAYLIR

In assay [1] the target is myeloid cell leukemia-1 (MCL-1) (human (endogenous in CAL27R)), Q07820. Nature of the assay: co-IP; endogenous MCL-1 and deubiquitinases, CAL27R sgCtrl and TRAF4 knockout cells treated with/without IR (2 Gy) for 20 min; primary antibody and Protein A/G agarose beads, immunoblot. The following applies: remark: other sources report otherwise.
Assay [2] addresses myeloid cell leukemia-1 (MCL-1) (human (endogenous in CAL27R)) (UniProt Q07820). The description is as above.

No constants are given. Whether binding was seen depends on the method and setting. Binding seen in cells or lysates may run through a third protein. Some entries that bind do so weakly or less than the wild type.

B1: USP13, Q92995 1-863 (enzyme)
chain: MQRRGALFGMPGGSGGRKMAAGDIGELLVPHMPTIRVPRSGDRVYKNECAFSYDSPNSEGGLYVCMNTFLAFGREHVERHFRKTGQSVYMHLKRHVREKVRGASGGALPKRRNSKIFLDLDTDDDLNSDDYEYEDEAKLVIFPDHYEIALPNIEELPALVTIACDAVLSSKSPYRKQDPDTWENELPVSKYANNLTQLDNGVRIPPSGWKCARCDLRENLWLNLTDGSVLCGKWFFDSSGGNGHALEHYRDMGYPLAVKLGTITPDGADVYSFQEEEPVLDPHLAKHLAHFGIDMLHMHGTENGLQDNDIKLRVSEWEVIQESGTKLKPMYGPGYTGLKNLGNSCYLSSVMQAIFSIPEFQRAYVGNLPRIFDYSPLDPTQDFNTQMTKLGHGLLSGQYSKPPVKSELIEQVMKEEHKPQQNGISPRMFKAFVSKSHPEFSSNRQQDAQEFFLHLVNLVERNRIGSENPSDVFRFLVEERIQCCQTRKVRYTERVDYLMQLPVAMEAATNKDELIAYELTRREAEANRRPLPELVRAKIPFSACLQAFSEPENVDDFWSSALQAKSAGVKTSRFASFPEYLVVQIKKFTFGLDWVPKKFDVSIDMPDLLDINHLRARGLQPGEEELPDISPPIVIPDDSKDRLMNQLIDPSDIDESSVMQLAEMGFPLEACRKAVYFTGNMGAEVAFNWIIVHMEEPDFAEPLTMPGYGGAASAGASVFGASGLDNQPPEEIVAIITSMGFQRNQAIQALRATNNNLERALDWIFSHPEFEEDSDFVIEMENNANANIISEAKPEGPRVKDGSGTYELFAFISHMGTSTMSGHYICHIKKEGRWVIYNDHKVCASERPPKDLGYMYFYRRIPS
Turning to B1, the binding result in assay [1] is listed as “binds”.

B2: DUB3 (enzyme, UniProt Q6R6M4 1-530)
chain: MEDDSLYLGGEWQFNHFSKLTSSRPDAAFAEIQRTSLPEKSPLSSEARVDLCDDLAPVARQLAPRKKLPLSSRRPAAVGAGLQNMGNTCYENASLQCLTYTPPLANYMLSREHSQTCQRPKCCMLCTMQAHITWALHSPGHVIQPSQALAAGFHRGKQEDAHEFLMFTVDAMKKACLPGHKQVDHHSKDTTLIHQIFGGCWRSQIKCLHCHGISDTFDPYLDIALDIQAAQSVKQALEQLVKPEELNGENAYHCGLCLQRAPASKTLTLHTSAKVLILVLKRFSDVTGNKLAKNVQYPECLDMQPYMSQQNTGPLVYVLYAVLVHAGWSCHDGHYFSYVKAQEGQWYKMDDAKVTACSITSVLSQQAYVLFYIQKSEWERHSESVSRGREPRALGAEDTDRRATQGELKRDHPCLQAPELDERLVERATQESTLDHWKFPQEQNKTKPEFNVRKVEGTLPPNVLVIHQSKYKCGMKNHHPEQQSSLLNLSSTTRTDQESVNTGTLASLQGRTRRSKGKNKHSKRALLVCQ
As for B2, in assay [2], the binding entry was “binds”.
